According to paper PMC6021351:
These are yes or no findings as the source states them, for the method shown. In cells and extracts the contact can be indirect. Some entries that bind do so weakly or less than the wild type.

The chains behind the UniProt entries cited, without tags or fusion partners.
UniProt P49790: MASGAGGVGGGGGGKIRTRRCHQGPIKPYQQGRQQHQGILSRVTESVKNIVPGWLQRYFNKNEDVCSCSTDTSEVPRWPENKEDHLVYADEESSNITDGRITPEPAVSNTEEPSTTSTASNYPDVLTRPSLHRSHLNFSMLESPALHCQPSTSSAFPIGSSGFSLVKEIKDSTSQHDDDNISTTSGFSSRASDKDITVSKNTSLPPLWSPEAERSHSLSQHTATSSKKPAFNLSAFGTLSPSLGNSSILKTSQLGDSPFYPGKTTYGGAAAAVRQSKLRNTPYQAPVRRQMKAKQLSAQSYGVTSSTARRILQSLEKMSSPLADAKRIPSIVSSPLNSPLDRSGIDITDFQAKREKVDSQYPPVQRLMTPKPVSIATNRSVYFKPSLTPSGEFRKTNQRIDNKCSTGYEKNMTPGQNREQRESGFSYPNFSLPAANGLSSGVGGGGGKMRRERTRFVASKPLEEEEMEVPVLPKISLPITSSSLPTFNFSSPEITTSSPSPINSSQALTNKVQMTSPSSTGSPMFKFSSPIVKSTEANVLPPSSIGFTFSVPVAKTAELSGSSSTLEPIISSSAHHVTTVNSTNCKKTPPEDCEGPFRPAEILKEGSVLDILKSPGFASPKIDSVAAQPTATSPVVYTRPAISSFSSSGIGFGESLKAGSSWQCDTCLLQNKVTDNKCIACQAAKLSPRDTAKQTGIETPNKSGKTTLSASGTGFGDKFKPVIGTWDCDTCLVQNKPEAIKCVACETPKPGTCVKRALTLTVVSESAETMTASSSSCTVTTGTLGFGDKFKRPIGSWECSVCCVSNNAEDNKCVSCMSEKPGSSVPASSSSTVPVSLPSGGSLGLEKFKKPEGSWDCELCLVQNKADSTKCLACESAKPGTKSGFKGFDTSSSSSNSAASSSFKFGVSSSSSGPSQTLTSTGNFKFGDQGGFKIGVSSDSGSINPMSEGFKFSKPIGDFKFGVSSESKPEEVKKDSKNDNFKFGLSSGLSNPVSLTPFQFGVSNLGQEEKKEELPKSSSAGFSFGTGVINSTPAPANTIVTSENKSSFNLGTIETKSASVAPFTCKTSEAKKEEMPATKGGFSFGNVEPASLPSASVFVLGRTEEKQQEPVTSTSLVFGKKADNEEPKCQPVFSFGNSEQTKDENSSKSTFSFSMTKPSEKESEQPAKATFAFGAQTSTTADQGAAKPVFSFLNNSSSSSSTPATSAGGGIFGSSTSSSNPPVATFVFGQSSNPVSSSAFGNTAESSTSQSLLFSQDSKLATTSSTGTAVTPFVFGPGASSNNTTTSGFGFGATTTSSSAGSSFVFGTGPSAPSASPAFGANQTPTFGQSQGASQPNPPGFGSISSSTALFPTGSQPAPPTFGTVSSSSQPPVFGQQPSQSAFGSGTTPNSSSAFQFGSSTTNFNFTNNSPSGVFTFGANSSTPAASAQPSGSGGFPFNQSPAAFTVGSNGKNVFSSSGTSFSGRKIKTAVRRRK
UniProt Q92731: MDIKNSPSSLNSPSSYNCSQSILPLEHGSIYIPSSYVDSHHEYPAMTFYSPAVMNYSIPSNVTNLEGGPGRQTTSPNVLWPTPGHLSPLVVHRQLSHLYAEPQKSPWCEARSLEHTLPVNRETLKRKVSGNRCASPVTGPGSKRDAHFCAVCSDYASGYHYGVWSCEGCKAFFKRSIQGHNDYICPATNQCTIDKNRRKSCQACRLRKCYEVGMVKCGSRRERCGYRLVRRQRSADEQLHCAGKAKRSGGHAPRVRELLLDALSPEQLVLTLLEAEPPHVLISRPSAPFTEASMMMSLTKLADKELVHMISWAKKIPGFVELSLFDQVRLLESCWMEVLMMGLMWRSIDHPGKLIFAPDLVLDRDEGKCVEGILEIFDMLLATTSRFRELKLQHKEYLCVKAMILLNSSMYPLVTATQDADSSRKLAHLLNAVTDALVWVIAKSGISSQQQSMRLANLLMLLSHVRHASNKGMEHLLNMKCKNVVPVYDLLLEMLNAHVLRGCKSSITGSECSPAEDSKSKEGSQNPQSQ
UniProt Q09472: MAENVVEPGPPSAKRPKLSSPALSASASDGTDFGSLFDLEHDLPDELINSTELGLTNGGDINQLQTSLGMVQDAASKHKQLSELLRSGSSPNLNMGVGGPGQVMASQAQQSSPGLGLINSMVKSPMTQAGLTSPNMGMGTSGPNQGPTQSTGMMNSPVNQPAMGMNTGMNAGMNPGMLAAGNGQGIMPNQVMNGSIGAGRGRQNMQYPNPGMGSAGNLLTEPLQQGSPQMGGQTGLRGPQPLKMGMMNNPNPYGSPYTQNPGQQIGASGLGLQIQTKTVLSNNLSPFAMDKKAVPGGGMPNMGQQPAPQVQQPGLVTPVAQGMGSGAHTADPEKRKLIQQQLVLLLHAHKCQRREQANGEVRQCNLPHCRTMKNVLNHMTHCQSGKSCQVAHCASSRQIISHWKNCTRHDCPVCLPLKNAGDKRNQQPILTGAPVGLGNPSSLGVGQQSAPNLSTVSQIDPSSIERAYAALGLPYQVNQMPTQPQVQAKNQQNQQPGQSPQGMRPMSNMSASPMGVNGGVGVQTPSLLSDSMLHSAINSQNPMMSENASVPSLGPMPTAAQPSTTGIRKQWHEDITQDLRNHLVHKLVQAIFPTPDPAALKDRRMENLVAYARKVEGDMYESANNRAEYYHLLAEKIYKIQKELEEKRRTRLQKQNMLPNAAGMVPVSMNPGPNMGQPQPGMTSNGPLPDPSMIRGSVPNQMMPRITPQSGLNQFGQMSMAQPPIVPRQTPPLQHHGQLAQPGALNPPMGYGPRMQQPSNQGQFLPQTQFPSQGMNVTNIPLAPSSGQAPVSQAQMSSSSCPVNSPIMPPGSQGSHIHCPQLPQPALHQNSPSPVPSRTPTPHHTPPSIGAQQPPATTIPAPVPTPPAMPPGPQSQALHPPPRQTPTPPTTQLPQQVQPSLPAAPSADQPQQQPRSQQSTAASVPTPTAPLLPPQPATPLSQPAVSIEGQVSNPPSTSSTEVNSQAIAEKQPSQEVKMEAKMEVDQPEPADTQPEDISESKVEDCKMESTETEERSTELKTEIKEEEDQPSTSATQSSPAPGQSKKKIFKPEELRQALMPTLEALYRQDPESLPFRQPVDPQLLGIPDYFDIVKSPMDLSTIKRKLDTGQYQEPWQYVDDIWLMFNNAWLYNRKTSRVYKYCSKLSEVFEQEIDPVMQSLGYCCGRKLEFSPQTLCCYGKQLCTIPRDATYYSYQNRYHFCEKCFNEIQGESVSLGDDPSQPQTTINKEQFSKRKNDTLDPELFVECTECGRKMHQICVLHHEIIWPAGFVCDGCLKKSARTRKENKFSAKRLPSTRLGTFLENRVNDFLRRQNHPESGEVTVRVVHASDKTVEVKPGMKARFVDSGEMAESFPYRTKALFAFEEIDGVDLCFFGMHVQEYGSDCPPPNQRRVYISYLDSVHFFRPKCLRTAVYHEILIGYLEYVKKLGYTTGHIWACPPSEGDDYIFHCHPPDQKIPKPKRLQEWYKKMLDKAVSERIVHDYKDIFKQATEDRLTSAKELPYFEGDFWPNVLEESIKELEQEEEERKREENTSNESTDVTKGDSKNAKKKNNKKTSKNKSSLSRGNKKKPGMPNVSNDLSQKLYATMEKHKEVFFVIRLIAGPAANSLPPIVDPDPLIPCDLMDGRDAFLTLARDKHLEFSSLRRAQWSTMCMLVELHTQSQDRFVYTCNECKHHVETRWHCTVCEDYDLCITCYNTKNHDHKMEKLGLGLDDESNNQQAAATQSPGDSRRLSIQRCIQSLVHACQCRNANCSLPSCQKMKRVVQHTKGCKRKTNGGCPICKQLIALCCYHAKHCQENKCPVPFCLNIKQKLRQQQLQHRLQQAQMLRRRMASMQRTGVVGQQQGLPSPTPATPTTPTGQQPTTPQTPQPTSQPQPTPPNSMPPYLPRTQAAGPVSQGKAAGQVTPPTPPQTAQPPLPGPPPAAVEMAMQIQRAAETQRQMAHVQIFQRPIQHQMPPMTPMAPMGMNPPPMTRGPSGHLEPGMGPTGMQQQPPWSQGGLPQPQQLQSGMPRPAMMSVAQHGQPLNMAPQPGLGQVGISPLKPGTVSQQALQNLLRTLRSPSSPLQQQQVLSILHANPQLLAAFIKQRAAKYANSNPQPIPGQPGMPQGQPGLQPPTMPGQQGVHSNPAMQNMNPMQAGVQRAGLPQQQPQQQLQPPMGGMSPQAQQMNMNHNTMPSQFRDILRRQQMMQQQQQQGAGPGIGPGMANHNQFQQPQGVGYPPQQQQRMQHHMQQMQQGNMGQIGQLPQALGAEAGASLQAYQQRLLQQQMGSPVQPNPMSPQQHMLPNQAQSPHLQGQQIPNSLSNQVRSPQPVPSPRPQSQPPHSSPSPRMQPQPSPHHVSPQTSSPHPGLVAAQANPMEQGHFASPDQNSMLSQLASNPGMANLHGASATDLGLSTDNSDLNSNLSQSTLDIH

Assays:
[1] = target: Nucleoporin 153 (human (endogenous in C27IM, C38IM, C17IM and HeLa)) (UniProt P49790); assay: co-IP; immunoprecipitation with Nup153 antibody from HeLa cells transfected with human ERβ full-length (530aa) or empty vector, before and after E2 10^-7M 24h; blots for Nup153, ERβ (CWK-F12) and eNOS; IgG as negative control
[2] = target: Nucleoporin 153 (human (endogenous in C27IM, C38IM, C17IM and HeLa)) (UniProt P49790); assay: co-IP; Nup153 and p300 in extracts of PCa cells, basal or E2 10^-7M 24h; precipitating antibody not stated; IgG as negative control
[3] = target: T1, endothelial nitric oxide synthase (human (endogenous in C27IM, C38IM, C17IM and HeLa)) (UniProt P29474); assay: co-IP; immunoprecipitation for eNOS from extracts of PCa (C38IM, C27IM) and BPH (C17IM) cells in basal condition, blot for Nup153; IgG as negative control; lysis buffer 50mM Tris-HCl pH 7.4, 250 mM NaCl, 0.1% tritonX100, 5mM EDTA, 0.3% Empigen BB
T1 sequence: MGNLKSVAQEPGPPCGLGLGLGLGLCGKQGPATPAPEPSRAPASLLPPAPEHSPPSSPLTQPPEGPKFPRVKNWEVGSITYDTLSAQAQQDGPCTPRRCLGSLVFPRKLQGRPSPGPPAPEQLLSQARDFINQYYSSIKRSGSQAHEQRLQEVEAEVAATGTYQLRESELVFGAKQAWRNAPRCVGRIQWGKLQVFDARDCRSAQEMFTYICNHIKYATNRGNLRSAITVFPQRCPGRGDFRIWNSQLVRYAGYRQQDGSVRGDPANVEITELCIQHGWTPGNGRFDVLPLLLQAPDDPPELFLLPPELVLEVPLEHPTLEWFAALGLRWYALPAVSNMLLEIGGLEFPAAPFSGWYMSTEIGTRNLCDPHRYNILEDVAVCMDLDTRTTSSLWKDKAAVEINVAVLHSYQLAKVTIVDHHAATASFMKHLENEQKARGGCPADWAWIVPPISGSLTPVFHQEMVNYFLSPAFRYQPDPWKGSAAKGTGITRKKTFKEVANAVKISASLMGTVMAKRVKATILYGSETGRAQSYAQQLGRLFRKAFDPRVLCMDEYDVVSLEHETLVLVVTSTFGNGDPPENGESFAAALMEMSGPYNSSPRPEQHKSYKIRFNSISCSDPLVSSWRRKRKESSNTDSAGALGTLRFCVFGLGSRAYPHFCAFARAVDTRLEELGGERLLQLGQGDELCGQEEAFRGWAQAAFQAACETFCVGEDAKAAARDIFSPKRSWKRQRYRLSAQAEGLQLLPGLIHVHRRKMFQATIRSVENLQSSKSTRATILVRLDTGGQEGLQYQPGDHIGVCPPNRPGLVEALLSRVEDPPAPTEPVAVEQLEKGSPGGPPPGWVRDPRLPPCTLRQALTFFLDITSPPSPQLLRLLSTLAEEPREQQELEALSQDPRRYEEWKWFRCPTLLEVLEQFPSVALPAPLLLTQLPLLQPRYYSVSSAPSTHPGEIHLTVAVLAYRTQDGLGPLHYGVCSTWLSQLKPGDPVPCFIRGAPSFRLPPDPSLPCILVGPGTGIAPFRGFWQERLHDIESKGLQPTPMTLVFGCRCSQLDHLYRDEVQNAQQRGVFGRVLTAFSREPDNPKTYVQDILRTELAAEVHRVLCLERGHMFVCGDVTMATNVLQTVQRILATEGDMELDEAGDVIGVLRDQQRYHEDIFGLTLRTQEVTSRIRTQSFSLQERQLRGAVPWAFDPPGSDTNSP

[4] = target: Estrogen Receptor beta (endogenous in PCa cells) (human (endogenous in C27IM)) (UniProt Q92731); assay: co-IP; immunoprecipitation with Nup153 antibody or with ERβ antibody (GeneTex #110607) from extracts of PCa cells (C27IM), basal or E2 10^-7M 24h; blots for Nup153, ERβ and eNOS; IgG as negative control; lysis buffer 50mM Tris-HCl pH 7.4, 250 mM NaCl, 0.1% tritonX100, 5mM EDTA, 0.3% Empigen BB
[5] = target: Nucleoporin 153 (human (endogenous in C27IM, C38IM, C17IM and HeLa)) (UniProt P49790); assay: as above

## human ERβ full-length (530aa) (from UniProt Q92731 1-530) (receptor)
[1]
  binding: binds

## Histone Acetyl Transferase p300 (from UniProt Q09472 1-2414) (enzyme)
[2]
  binding: binds

## Nucleoporin 153 (from UniProt P49790 1-1475)
[3]
  binding: binds
[4]
  binding: binds

## Estrogen Receptor beta (endogenous in PCa cells) (from UniProt Q92731 1-530)
[5]
  binding: binds
